Results on three molecules are retold here after article doi:10.1101/2020.11.09.375865.

No constants are given. Whether binding was seen depends on the method and setting. Some entries that bind do so weakly or less than the wild type.

The assay deals with T1, SAS-7 (C. elegans) (UniProt G5EBL8).
T1 sequence: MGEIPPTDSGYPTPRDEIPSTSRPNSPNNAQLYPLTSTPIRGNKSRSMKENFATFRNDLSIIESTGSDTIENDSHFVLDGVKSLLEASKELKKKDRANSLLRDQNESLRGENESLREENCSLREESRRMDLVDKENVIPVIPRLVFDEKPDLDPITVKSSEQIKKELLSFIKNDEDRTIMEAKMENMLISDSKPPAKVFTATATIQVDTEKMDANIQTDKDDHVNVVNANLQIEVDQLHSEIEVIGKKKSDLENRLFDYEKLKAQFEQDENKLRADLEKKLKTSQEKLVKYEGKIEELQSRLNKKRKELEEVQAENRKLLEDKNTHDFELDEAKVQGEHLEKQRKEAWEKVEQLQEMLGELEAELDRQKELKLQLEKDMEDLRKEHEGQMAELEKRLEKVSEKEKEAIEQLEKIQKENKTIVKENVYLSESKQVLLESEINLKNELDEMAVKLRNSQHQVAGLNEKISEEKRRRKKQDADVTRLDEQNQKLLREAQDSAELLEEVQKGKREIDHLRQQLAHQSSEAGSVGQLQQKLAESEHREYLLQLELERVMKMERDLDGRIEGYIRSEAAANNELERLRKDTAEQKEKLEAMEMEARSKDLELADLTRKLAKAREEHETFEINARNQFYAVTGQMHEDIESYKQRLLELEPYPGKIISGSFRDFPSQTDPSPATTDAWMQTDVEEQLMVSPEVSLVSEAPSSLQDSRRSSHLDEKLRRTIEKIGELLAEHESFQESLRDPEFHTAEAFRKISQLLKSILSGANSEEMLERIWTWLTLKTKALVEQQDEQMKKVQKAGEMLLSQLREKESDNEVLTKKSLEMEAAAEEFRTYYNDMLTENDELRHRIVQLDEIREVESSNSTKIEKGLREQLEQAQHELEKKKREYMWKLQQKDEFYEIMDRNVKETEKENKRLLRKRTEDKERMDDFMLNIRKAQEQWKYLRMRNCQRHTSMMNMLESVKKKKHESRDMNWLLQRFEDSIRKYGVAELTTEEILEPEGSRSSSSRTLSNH
The assay can be described thus: two-hybrid.

B1: SPD-2 (protein, UniProt P91870 1-824)
chain: MEDDAPMNLCNEQFEEIEDSPIDDNDNESFYNADGDVELEEEEVHETPKNFKNGGRFKTNMTNPKVNDLTTIEEKNEDLRSAASSRSASRPASVMSDKSFSSQFEFQSGGENAIEEYTNQVFADENKADLLFPETSKFMNGASPPKDKHHSWEPSIHHYDKQPPPDIQTNSPVFGNLNHRKNKLIPQARAKPGANDNEIVERDNDENVPTTSDKSAFITSPMNSTNHDEKTSTPKRPTNRKIGQYQGPNFDLSSIYVGSPQHQNTSISTGQQMPTSSYSHAHSETMMTNQTINESMVRRVLNGNNKNQDLFAALEEARKRRAAQPSKPDFRINTTRTRVPIKPTSARHSGNVVSSTSNDNTTAASSKDLTTSRKAMETFRQNASMADATNSNTASMTSILSTISTARTDISRSSRNHGGGFSNTSVSTVIPANNGNVSLSHGRDGRDSVSSVRTMSRASSTSTVYAGSTFSGVSKPLRIHAKRVAFGCVAVGETLRVEVEVENISDRQCLVRASTDSTTPVYQILDNKLTMVDPKKSIKFQVSFSPSSVGRYQVIMSIEVPAQNFIHKIPMWGNGGIAKFVPTSPDLQQTINQSEYAMCTSCAKRISFKISNSAGTRDGFAMIKVFDSAMRQLPDGCVAFFPAPGFIVKKKSDKRVDIRIDSSYIDLHDENNFRTSSSLSTASTTSSFQRRILPGAKFFVHVVWGEETMRTRLRLLEVRTGQHQLIDGHDFTSFQFSDEEVLRAVPVGFPAIKPEDRDLFAASYRSFFINFFTSTTEFRAATSRKKKEICSNDDSTLLETTAFRNQTFVNDVTIVPNTRFSNRK
As to B1, the binding entry is reported as “binds”.

B2: SAS-7 (protein, UniProt G5EBL8 1-1013)
chain: T1 sequence
In the case of B2, the binding entry is recorded as “no binding”.

B3: SPD-5 (protein, UniProt P91349 1-1198)
chain: MEDNSVLNEDSNLEHVEGQPRRSMSQPVLNVEGDKRTSSTSATQQQVLSGAFSSADVRSIPIIQTWEENKALKTKITILRGELQMYQRRYSEAKEASQKRVKEVMDDYVDLKLGQENVQEKMEQYKLMEEDLLAMQSRIETSEDNFARQMKEFEAQKHAMEERIKELELSATDANNTTVGSFRGTLDDILKKNDPDFTLTSGYEERKINDLEAKLLSEIDKVAELEDHIQQLRQELDDQSARLADSENVRAQLEAATGQGILGAAGNAMVPNSTFMIGNGRESQTRDQLNYIDDLETKLADAKKENDKARQALVEYMNKCSKLEHEIRTMVKNSTFDSSSMLLGGQTSDELKIQIGKVNGELNVLRAENRELRIRCDQLTGGDGNLSISLGQSRLMAGIATNDVDSIGQGNETGGTSMRILPRESQLDDLEESKLPLMDTSSAVRNQQQFASMWEDFESVKDSLQNNHNDTLEGSFNSSMPPPGRDATQSFLSQKSFKNSPIVMQKPKSLHLHLKSHQSEGAGEQIQNNSFSTKTASPHVSQSHIPILHDMQQILDSSAMFLEGQHDVAVNVEQMQEKMSQIREALARLFERLKSSAALFEEILERMGSSDPNADKIKKMKLAFETSINDKLNVSAILEAAEKDLHNMSLNFSILEKSIVSQAAEASRRFTIAPDAEDVASSSLLNASYSPLFKFTSNSDIVEKLQNEVSELKNELEMARTRDMRSPLNGSSGRLSDVQINTNRMFEDLEVSEATLQKAKEENSTLKSQFAELEANLHQVNSKLGEVRCELNEALARVDGEQETRVKAENALEEARQLISSLKHEENELKKTITDMGMRLNEAKKSDEFLKSELSTALEEEKKSQNLADELSEELNGWRMRTKEAENKVEHASSEKSEMLERIVHLETEMEKLSTSEIAADYCSTKMTERKKEIELAKYREDFENAAIVGLERISKEISELTKKTLKAKIIPSNISSIQLVCDELCRRLSREREQQHEYAKVMRDVNEKIEKLQLEKDALEHELKMMSSNNENVPPVGTSVSGMPTKTSNQKCAQPHYTSPTRQLLHESTMAVDAIVQKLKKTHNMSGMGPELKETIGNVINESRVLRDFLHQKLILFKGIDMSNWKNETVDQLITDLGQLHQDNLMLEEQIKKYKKELKLTKSAIPTLGVEFQDRIKTEIGKIATDMGGAVKEIRKK
Take B3: the binding entry is given as “no binding”.
